# Library screen at single concentrations

From ChEMBL document CHEMBL3988442, “University of Dundee, Small-Polar-MMV Screening Library” (2021).

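Whole-parasite assay of Trypanosoma brucei over 72 hours; the read-out is not stated. Compounds at 10 µM. Direction is inferred from retests: higher values go with stronger inhibition. Values scatter widely below zero; nearly all retest evidence comes from the higher of the two concentrations used. Size under these conditions: about 2,700 compounds, about 14 of them at 50% or above in at least one test.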

Each number is a percent effect as filed.
How 0% and 100% were set is not recorded. Most values in the screen are low, and negative values occur.
This is an unselected part of the compounds tested.

SMILES,percent effect
CC(=O)NCc1ccc(C(=O)N2CCCC2c2cnn(C)c2)s1 (stereo not drawn),-39.05%
Cc1nn(C)c(C)c1C1CCCN1Cc1nc2ccccc2c(=O)[nH]1 (stereo not drawn),-84.91%
Cc1nc(C)n(CC2CN(CCC(=O)N3CCCCC3)CCO2)n1 (stereo not drawn),-50.47%
c1nc(N2CCCC2Cn2cncn2)c2sccc2n1 (stereo not drawn),-38.23%
CC(=O)N1CCCN(C(=O)NCCNc2ccccn2)CC1,-91.71%
Cc1cc(C)n(CC2CN(Cc3cnc(C)s3)CCO2)n1 (stereo not drawn),-34.41%
Cc1cn2c(n1)CCC(NC(=O)c1oc(Br)cc1C)C2 (stereo not drawn),-21.02%
Cc1nn(C)c(N(C)C)c1CNCc1ccccc1CO,-5.023%
Cc1cnn(CC2CCCCN2CCCS(C)(=O)=O)c1 (stereo not drawn),-5.754%
CC(C)(C)c1nc(CN(Cc2cccs2)CC2CCCO2)no1 (stereo not drawn),-3.717%
Cc1ccc(NC2CCN(C(=O)c3cc(C)sc3C)CC2)nn1,-11.78%
Cc1nnc(NC(=O)NCc2ccnc(N(C)C)c2)s1,-5.273%
Nc1cc2c(nn1)CCN(C(=O)CCC1CCCCC1)C2,-15.4%
NC(=O)C(NCc1nn(-c2ccccc2)c2c1CCC2)c1ccccc1 (stereo not drawn),-3.632%
CCn1cnnc1CNC(=O)c1cc(Cl)ccc1I,7.142%
CC(C)c1cnc(CN(C)C2CCN(CCCc3cnn(C)c3)C2)o1 (stereo not drawn),-13.15%
CCn1cnnc1CNC(=O)N1CCN(CC(C)C)CC1,-63.03%
Cc1nc(C)n(CC2CCCCN2CC(=O)Nc2c(C)n[nH]c2C)n1 (stereo not drawn),-29%
Cc1ccc(NC2CCN(C(=O)c3ccc(F)cc3Cl)CC2)nn1,-13.41%
COc1ccc(N2CCN(C(=O)NC(C)c3nncn3C)CC2)cc1 (stereo not drawn),-26.46%
Cc1cccc(-n2c(C)cc(C(=O)NS(C)(=O)=O)c2C)c1,-11.39%
OC(c1ccccc1)C1CCN(Cc2csc(-c3ncccn3)n2)CC1 (stereo not drawn),-57.65%
CC(Cn1cccn1)NC(=O)NCc1ccnc(OC2CCCC2)c1 (stereo not drawn),-8.351%
Cc1ccc(C)n1C(C)C(=O)N1CCCN(Cc2cscn2)CC1 (stereo not drawn),-13.19%
Cc1nc(C)n(CC2CN(CCOc3ccccc3C#N)CCO2)n1 (stereo not drawn),3.937%
O=C(O)c1cc(S(=O)(=O)Nc2cc(F)cc(F)c2)cc2c1OCCO2,-5.048%
Cc1ccc(NC2CCN(C(=O)c3ccc(C(N)=O)s3)CC2)nn1,-70.51%
CCc1nnc2n1CCN(Cc1nnc(-c3occc3C)o1)C2,-11.11%
CS(=O)(=O)NCCN1CCCC1c1noc(C2CC2)n1 (stereo not drawn),-40.16%
CCc1n[nH]c(C2CN(C(=O)c3cnn(CC)c3)CCO2)n1 (stereo not drawn),-65.74%
CCN(CC)Cc1ccc(C(=O)N2CCCC2c2cnn(C)c2)o1 (stereo not drawn),2.271%
COc1ccc(C(=O)N2CCC(Nc3ccc(C)nn3)CC2)cc1,-14.35%
O=C(NCc1cc[nH]n1)NCC(c1ccccc1)N1CCOCC1 (stereo not drawn),-62.71%
Cc1csc(C2CCCCN2C(=O)c2c[nH]c(C)n2)n1 (stereo not drawn),-36.25%
COc1c(CNCC(O)c2cccc(F)c2)c(C)nn1C (stereo not drawn),-63.68%
Cc1cc(NC(=O)CN2CCCC2c2noc(C(C)C)n2)on1 (stereo not drawn),-33.82%
CCn1c(C)nnc1CN(C)C1CCN(CCCSC)C1 (stereo not drawn),-61.1%
COc1c(CNC2CCc3cc(Cl)ccc32)c(C)nn1C (stereo not drawn),-28.06%
CN(C)S(=O)(=O)CCCN1CCCC1c1noc(C2CC2)n1 (stereo not drawn),-45.33%
COc1ccccc1OCCNCc1c(C)nn(C)c1N(C)C.Cl,-67.04%
CC(C)c1nc(C2CCCN2C(=O)c2cnns2)no1 (stereo not drawn),-39.98%
Cc1noc(C(C)C)c1C(=O)NCCCN1CCCCCC1=O,-34.1%
CCN(CC)C(=O)c1ccc(-n2ncc(C#N)c2N)cc1,-15.08%
Cc1noc(C(C)N2CCN(Cc3nnc(C4CC4)o3)CC2)n1 (stereo not drawn),-17.01%
CCCC(=O)NC(C(=O)OC)c1cc(F)ccc1F (stereo not drawn),-36.28%
Cc1cccc(C(=O)N(C)C2CCN(c3ccccn3)CC2)c1C,-40.77%
CC(C)c1nc(C2CCCN2C(=O)CCn2cncn2)no1 (stereo not drawn),-33.94%
CCOCC(=O)N1CSCC1C(=O)N(C)Cc1ccco1 (stereo not drawn),-36.71%
COc1cccc(CNCc2c(C)nn(C)c2N(C)C)c1,-64.58%
CSc1ccccc1C(=O)NCCCN1CCc2ccccc2C1,1.113%
Cc1nnc(NC(=O)NCc2ccc(OC(C)C)nc2)s1,10.12%
c1ccc(-c2nc(CN3CCn4c(nnc4C4CC4)C3)co2)cc1,-11.16%
COc1cc(C(=O)Nc2nc(C)no2)ccc1OC(F)F,-60.85%
CC(=O)N1CCCN(C(=O)NCCOc2ccc3c(c2)OCO3)CC1,-34.27%

The first 4 entries again:

| SMILES | percent effect |
|---|---|
| `CC(=O)NCc1ccc(C(=O)N2CCCC2c2cnn(C)c2)s1` (stereo not drawn) | -39.05% |
| `Cc1nn(C)c(C)c1C1CCCN1Cc1nc2ccccc2c(=O)[nH]1` (stereo not drawn) | -84.91% |
| `Cc1nc(C)n(CC2CN(CCC(=O)N3CCCCC3)CCO2)n1` (stereo not drawn) | -50.47% |
| `c1nc(N2CCCC2Cn2cncn2)c2sccc2n1` (stereo not drawn) | -38.23% |